# This is one part of the list.
# Chains of the proteins cited; added tags and fusions are not shown. Lines headed by an entry give the natural chain unless they say otherwise; changes in a name come on top.
# UniProt O75494: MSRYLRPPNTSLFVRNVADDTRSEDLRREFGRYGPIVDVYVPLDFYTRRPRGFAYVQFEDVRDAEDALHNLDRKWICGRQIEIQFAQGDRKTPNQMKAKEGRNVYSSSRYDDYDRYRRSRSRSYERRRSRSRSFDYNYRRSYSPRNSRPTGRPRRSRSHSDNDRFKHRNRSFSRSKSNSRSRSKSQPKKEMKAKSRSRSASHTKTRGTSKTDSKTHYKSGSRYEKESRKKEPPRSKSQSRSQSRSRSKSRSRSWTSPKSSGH
# UniProt Q14849, whole entry, looked up: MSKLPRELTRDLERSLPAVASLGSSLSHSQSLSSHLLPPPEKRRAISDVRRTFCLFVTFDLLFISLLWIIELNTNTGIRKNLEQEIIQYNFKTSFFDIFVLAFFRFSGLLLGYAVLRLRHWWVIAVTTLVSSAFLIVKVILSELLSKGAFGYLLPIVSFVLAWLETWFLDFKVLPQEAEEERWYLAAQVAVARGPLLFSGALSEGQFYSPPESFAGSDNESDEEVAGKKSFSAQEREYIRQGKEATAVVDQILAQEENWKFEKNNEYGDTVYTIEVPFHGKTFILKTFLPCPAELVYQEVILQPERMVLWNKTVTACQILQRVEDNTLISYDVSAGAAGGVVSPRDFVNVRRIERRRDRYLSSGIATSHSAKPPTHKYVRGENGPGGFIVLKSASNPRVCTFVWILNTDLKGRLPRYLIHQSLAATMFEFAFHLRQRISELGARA
# UniProt P51571: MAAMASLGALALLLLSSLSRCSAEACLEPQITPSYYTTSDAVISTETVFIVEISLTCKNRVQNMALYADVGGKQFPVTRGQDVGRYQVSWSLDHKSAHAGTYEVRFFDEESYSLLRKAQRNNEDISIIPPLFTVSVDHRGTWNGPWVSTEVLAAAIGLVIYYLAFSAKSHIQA
# UniProt Q16629: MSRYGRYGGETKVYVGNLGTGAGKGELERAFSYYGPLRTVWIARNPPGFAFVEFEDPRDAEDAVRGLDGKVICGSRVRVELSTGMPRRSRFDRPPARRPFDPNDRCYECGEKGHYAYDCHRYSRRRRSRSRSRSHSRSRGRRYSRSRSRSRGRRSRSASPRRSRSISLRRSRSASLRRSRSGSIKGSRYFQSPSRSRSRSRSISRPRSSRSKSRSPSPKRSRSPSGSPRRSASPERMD
# UniProt Q8TCT8: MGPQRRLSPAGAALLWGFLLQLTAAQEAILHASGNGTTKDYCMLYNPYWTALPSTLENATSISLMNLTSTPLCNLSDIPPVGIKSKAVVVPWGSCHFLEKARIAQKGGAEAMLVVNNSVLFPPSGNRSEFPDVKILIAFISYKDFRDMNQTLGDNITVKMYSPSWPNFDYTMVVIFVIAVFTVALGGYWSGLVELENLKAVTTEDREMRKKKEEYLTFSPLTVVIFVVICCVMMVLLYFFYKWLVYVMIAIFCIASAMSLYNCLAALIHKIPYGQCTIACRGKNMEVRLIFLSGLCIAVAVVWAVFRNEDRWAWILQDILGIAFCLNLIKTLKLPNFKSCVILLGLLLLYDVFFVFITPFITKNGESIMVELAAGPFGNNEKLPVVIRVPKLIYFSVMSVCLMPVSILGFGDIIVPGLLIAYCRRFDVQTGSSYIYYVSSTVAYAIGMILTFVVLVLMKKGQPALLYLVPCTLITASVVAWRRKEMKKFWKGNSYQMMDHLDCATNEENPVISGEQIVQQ
# UniProt Q01082, whole entry, looked up: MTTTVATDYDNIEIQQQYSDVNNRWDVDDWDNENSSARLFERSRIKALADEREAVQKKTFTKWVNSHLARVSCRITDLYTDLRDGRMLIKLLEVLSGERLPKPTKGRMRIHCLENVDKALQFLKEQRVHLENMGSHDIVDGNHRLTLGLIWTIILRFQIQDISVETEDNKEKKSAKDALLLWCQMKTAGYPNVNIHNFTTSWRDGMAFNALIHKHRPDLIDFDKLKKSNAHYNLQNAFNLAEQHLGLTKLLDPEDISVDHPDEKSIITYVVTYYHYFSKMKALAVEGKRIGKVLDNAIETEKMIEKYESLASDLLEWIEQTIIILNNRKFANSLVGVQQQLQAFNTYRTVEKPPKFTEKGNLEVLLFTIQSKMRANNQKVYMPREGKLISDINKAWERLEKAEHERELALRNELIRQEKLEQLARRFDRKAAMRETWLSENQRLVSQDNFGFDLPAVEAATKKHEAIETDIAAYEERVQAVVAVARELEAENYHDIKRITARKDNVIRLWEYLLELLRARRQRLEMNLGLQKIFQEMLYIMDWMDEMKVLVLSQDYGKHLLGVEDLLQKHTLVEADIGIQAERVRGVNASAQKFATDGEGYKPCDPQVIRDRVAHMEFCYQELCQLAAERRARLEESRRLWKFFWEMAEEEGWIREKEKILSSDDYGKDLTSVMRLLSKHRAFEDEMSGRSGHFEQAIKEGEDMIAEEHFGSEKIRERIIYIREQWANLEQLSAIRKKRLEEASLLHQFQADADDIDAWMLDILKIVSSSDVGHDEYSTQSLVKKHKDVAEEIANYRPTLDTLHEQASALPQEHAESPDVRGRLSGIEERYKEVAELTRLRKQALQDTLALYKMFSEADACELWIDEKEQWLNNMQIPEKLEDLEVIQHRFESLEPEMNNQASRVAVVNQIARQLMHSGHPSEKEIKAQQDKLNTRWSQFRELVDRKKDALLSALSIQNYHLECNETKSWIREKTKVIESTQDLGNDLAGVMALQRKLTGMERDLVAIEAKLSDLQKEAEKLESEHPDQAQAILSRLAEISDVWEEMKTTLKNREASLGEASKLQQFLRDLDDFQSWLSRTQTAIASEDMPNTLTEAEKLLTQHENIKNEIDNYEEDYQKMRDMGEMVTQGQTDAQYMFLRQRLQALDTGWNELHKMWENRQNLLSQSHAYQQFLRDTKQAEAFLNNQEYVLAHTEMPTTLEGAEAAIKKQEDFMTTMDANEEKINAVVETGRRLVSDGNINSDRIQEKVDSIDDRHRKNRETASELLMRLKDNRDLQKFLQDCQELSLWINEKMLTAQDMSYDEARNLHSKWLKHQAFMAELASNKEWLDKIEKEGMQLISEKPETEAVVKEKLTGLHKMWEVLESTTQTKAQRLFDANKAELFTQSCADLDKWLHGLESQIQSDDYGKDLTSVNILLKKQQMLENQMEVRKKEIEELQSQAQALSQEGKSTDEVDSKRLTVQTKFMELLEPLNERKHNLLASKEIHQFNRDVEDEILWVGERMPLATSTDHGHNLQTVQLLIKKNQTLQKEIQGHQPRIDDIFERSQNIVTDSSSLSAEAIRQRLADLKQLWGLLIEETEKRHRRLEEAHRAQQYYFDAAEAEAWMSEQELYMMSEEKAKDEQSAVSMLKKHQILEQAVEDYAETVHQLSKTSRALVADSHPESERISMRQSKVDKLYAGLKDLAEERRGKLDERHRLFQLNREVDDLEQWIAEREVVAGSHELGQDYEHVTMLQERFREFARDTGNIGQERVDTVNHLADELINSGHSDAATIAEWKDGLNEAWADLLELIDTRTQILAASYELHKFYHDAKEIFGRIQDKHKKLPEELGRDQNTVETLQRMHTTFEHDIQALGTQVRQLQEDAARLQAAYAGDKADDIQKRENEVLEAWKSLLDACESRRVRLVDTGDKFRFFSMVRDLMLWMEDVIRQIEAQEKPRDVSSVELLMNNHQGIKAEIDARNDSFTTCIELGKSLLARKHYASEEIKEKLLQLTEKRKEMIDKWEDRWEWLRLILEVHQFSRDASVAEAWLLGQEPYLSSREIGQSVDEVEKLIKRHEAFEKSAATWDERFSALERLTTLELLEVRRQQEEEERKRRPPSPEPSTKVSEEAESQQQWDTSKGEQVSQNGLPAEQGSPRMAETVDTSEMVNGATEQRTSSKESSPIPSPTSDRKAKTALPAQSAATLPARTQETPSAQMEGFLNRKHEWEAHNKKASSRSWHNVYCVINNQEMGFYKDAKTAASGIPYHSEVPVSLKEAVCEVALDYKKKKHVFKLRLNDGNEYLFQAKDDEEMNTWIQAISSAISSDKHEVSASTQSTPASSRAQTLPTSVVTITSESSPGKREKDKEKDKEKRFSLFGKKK
# UniProt Q01130: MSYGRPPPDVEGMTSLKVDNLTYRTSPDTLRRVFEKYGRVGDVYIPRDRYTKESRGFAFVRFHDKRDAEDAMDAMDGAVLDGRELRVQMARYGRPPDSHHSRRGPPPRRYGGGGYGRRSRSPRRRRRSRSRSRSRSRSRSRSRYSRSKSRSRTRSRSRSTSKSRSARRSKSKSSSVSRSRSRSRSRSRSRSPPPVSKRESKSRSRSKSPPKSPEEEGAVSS
# UniProt P51692: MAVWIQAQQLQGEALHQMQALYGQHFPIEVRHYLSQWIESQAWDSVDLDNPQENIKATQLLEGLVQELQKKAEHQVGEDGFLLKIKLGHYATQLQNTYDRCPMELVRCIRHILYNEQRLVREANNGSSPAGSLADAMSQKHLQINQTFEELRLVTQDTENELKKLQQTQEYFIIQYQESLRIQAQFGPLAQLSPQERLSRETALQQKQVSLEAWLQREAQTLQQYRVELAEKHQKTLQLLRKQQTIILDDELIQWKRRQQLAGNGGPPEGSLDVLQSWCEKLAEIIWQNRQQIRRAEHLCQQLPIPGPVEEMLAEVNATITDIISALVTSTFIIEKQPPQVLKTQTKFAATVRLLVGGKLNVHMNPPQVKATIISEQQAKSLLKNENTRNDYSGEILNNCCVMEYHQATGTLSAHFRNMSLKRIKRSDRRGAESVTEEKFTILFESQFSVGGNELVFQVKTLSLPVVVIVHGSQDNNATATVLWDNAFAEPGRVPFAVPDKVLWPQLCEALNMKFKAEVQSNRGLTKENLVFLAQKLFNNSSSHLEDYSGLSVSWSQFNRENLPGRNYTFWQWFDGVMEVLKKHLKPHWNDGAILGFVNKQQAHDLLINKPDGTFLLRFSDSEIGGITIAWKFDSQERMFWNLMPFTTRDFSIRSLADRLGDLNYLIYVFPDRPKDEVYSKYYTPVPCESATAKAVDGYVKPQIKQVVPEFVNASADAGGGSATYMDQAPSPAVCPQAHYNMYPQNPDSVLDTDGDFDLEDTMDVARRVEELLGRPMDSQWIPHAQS
# UniProt P42229: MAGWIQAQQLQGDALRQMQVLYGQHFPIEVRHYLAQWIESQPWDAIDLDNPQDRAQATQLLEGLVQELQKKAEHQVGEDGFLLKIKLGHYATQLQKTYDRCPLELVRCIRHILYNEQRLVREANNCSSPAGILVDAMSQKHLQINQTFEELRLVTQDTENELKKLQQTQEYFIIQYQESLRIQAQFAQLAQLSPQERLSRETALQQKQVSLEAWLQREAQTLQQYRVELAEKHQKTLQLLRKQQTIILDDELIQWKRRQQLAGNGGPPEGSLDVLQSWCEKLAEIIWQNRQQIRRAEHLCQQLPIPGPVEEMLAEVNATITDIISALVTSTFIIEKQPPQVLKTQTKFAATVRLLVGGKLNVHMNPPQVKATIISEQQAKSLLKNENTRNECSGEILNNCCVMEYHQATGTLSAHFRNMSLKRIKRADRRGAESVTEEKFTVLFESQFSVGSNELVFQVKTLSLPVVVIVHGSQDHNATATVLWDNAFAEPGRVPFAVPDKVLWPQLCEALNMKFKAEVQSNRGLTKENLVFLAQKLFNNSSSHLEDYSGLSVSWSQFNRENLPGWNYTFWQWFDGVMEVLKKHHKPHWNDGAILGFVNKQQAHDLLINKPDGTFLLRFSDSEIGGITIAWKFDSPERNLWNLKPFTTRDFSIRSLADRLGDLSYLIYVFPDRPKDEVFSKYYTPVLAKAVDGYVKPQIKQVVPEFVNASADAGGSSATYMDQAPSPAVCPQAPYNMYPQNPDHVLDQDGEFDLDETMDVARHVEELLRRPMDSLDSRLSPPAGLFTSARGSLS
# UniProt Q9NSC7: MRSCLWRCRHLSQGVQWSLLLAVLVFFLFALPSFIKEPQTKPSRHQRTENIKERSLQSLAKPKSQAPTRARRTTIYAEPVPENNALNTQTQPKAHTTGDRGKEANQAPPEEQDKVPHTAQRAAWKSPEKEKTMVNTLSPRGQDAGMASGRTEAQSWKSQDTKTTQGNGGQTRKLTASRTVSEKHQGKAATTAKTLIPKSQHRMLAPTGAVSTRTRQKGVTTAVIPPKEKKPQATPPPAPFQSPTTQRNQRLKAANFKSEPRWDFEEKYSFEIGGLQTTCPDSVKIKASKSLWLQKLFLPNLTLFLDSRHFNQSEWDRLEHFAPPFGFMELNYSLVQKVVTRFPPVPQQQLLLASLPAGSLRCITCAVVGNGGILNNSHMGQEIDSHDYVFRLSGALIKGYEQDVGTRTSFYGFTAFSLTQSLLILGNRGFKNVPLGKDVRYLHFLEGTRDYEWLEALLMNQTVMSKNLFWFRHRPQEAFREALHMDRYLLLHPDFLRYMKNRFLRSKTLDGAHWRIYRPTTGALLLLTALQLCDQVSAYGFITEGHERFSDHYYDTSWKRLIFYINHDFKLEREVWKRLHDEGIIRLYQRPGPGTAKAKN
# UniProt Q9NP77: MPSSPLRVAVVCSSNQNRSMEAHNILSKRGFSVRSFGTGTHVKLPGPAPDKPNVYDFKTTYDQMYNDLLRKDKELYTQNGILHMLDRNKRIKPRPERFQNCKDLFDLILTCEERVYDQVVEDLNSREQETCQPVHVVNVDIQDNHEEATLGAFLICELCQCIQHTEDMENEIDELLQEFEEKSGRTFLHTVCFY
# What was measured:
# Assay in all cases: log2 fold change, soluble protein after heating vs DMSO (PISA); higher = thermal stabilisation; K562 cells, 10 uM, 30 min; active = over 0.2 and 3.5 SD of the protein, either way, in both replicates (recomputed)
# [1] = compound: CS(=O)(=O)c1ccc(-c2cnc(N)c(C(=O)Nc3ccccc3)n2)cc1
# In short: (§1)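 Thermal stability values are relative to control samples and come from duplicates. They are expressed as log2 fold changes. For measurement, K562 cells (2×10^6 cells/mL) received 10 μM compound for 30 min, and aliquots were heated for 3 min over 48°C-58°C, pooled, and extracted at 4°C in PBS with 0.5% NP-40. Soluble protein, the supernatant after 21,000xg for 90 min, was quantified by TMTpro 16plex LC-MS/MS with equalised channel sums.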
# crizotinib = compound: C[C@@H](Oc1cc(-c2cnn(C3CCNCC3)c2)cnc1N)c1c(Cl)ccc(F)c1Cl [crizotinib]
# In short: as §1
# [2] = compound: C[C@@H]1COCCN1C2=NC(=NC(=C2)C3(CC3)S(=O)(=O)C)C4=C5C=CNC5=CC=C4
# In short: as §1
# [3] = compound: C[C@H](C1=CC=C(C=C1)C(=O)NC2=C3C=CNC3=NC=C2)N
# In short: as §1
# duvelisib = compound: C[C@H](Nc1ncnc2nc[nH]c12)c1cc2cccc(Cl)c2c(=O)n1-c1ccccc1 [duvelisib]
# In short: as §1
# gandotinib = compound: Cc1cc(Nc2cc(CN3CCOCC3)c3nc(C)c(Cc4ccc(Cl)cc4F)n3n2)n[nH]1 [gandotinib]
# In short: as §1
# tozasertib = compound: Cc1cc(Nc2cc(N3CCN(C)CC3)nc(Sc3ccc(NC(=O)C4CC4)cc3)n2)n[nH]1 [tozasertib]
# In short: as §1
# [4] = compound: Cc1cc(SCc2sc(-c3ccc(C(F)(F)F)cc3)nc2C)ccc1OCC(=O)O
# In short: as §1
# doramapimod = compound: Cc1ccc(-n2nc(C(C)(C)C)cc2NC(=O)Nc2ccc(OCCN3CCOCC3)c3ccccc23)cc1 [doramapimod]
# In short: as §1
# ispinesib = compound: Cc1ccc(C(=O)N(CCCN)[C@@H](c2nc3cc(Cl)ccc3c(=O)n2Cc2ccccc2)C(C)C)cc1 [ispinesib]
# In short: as §1
# bafetinib = compound: Cc1ccc(NC(=O)c2ccc(CN3CC[C@H](N(C)C)C3)c(C(F)(F)F)c2)cc1Nc1nccc(-c2cncnc2)n1 [bafetinib]
# In short: as §1
# [5] = compound: Cc1cccc(CC(=O)N2CCc3c2ccc(-c2cn(C)c4ncnc(N)c24)c3F)n1
# In short: as §1
# nilotinib = compound: Cc1cn(-c2cc(NC(=O)c3ccc(C)c(Nc4nccc(-c5cccnc5)n4)c3)cc(C(F)(F)F)c2)cn1 [nilotinib]
# In short: as §1
# [6] = compound: Cc1nc(Nc2n[nH]c3c2CN(C(=O)N[C@H](CN(C)C)c2ccccc2)C3(C)C)c2sccc2n1
# In short: as §1
# dasatinib = compound: Cc1nc(Nc2ncc(C(=O)Nc3c(C)cccc3Cl)s2)cc(N2CCN(CCO)CC2)n1 [dasatinib]
# In short: as §1
# [7] = compound: Cc1ncc(-c2ccnc(Nc3ccc(S(C)(=O)=O)cc3)n2)n1C(C)C
# In short: as §1
# [8] = compound: Cn1cc(-c2ccc3c(c2)CCN3C(=O)Cc2cccc(C(F)(F)F)c2)c2c(N)ncnc21
# In short: as §1
# [9] = compound: Cn1cc(-c2ccc3nnc(C(F)(F)c4ccc5ncccc5c4)n3n2)cn1
# In short: as §1
# tipifarnib = compound: Cn1cncc1[C@@](N)(c1ccc(Cl)cc1)c1ccc2c(c1)c(-c1cccc(Cl)c1)cc(=O)n2C [tipifarnib]
# In short: as §1
# mubritinib = compound: FC(F)(F)c1ccc(/C=C/c2nc(COc3ccc(CCCCn4ccnn4)cc3)co2)cc1 [mubritinib]
# In short: as §1
Target,log2 fold change [1],log2 fold change (crizotinib),log2 fold change [2],log2 fold change [3],log2 fold change (duvelisib),log2 fold change (gandotinib),log2 fold change (tozasertib),log2 fold change [4],log2 fold change (doramapimod),log2 fold change (ispinesib),log2 fold change (bafetinib),log2 fold change [5],log2 fold change (nilotinib),log2 fold change [6],log2 fold change (dasatinib),log2 fold change [7],log2 fold change [8],log2 fold change [9],log2 fold change (tipifarnib),log2 fold change (mubritinib)
STK24 (UniProt Q9Y6E0),inactive: -0.002,inactive: -0.097,inactive: 0.069,inactive: 0,inactive: 0.034,inactive: -0.066,inactive: -0.027,inactive: -0.02,inactive: 0.009,inactive: -0.022,inactive: -0.063,inactive: -0.006,inactive: -0.083,inactive: 0.182,inactive: -0.134,inactive: -0.02,inactive: 0.053,inactive: 0.05,inactive: -0.027,inactive: 0.005
SRI (UniProt P30626),inactive: -0.061,inactive: 0.082,inactive: 0.159,inactive: -0.139,,inactive: -0.03,,inactive: 0.066,inactive: -0.032,active: 0.353,inactive: -0.001,inactive: 0.062,inactive: 0.017,inactive: 0.001,inactive: 0.04,inactive: -0.036,inactive: 0.113,inactive: 0.328,inactive: -0.072,inactive: 0.01
SRFBP1 (UniProt Q8NEF9),inactive: -0.053,inactive: -0.029,inactive: -0.21,inactive: 0.061,,inactive: 0.083,,inactive: -0.028,inactive: 0.007,inactive: -0.055,inactive: 0.075,inactive: -0.014,inactive: 0.303,inactive: -0.031,inactive: 0.095,inactive: -0.066,inactive: -0.163,inactive: -0.044,inactive: 0.177,inactive: -0.129
SRSF10 (UniProt O75494),inactive: -0.176,inactive: 0.153,inactive: -0.539,inactive: 0.259,,inactive: 0.183,,inactive: 0.036,inactive: 0.222,inactive: -0.172,inactive: 0.044,inactive: -0.1,inactive: 0.089,inactive: -0.079,inactive: 0.336,inactive: 0.076,inactive: -0.498,inactive: -0.173,inactive: 0.215,inactive: -0.089
SRSF11 (UniProt Q05519),inactive: -0.037,inactive: 0.015,inactive: 0.045,active: -0.277,,inactive: -0.068,,inactive: 0.067,inactive: -0.015,inactive: 0.08,inactive: 0.071,inactive: 0.105,inactive: -0.024,active: -1.01,inactive: -0.034,inactive: -0.001,inactive: -0.078,inactive: 0.015,inactive: -0.029,inactive: -0.01
STARD3 (UniProt Q14849),inactive: 0.017,active: -0.36,inactive: 0.194,inactive: -0.043,,inactive: 0.098,,inactive: -0.015,inactive: 0.043,active: -0.559,inactive: -0.097,inactive: 0.064,inactive: 0.215,inactive: 0.218,inactive: 0.284,inactive: 0.068,inactive: 0.119,inactive: -0.018,inactive: 0.022,inactive: -0.067
SSR4 (UniProt P51571),inactive: -0.004,inactive: 0.001,inactive: 0.081,inactive: -0.054,,inactive: -0.055,,inactive: 0.033,inactive: -0.019,inactive: -0.045,inactive: -0.011,inactive: -0.057,inactive: -0.001,inactive: 0.021,inactive: -0.028,inactive: -0.005,inactive: 0.067,inactive: 0.026,inactive: -0.063,inactive: 0.003
SRSF7 (UniProt Q16629),inactive: -0.096,inactive: 0.008,inactive: -0.311,inactive: 0.045,,inactive: 0.319,,inactive: -0.025,inactive: 0.073,inactive: -0.089,inactive: 0.073,inactive: -0.055,inactive: 0.156,active: -0.642,inactive: 0.171,inactive: 0.044,inactive: -0.177,inactive: -0.126,inactive: 0.181,inactive: -0.128
SPPL2A (UniProt Q8TCT8),inactive: 0.024,inactive: 0.086,inactive: 0.002,inactive: 0.06,inactive: 0.12,inactive: 0.199,inactive: -0.03,inactive: -0.075,inactive: 0.016,inactive: -0.027,inactive: 0.023,inactive: -0.125,,,inactive: 0.087,,inactive: -0.058,inactive: -0.043,inactive: 0.13,inactive: 0.085
SPTBN1 (UniProt Q01082),inactive: 0.018,inactive: 0.042,inactive: 0.008,inactive: 0.039,,inactive: -0.039,,inactive: 0.094,inactive: 0.021,inactive: 0.03,inactive: 0.064,inactive: -0.017,inactive: -0.01,inactive: -0.145,inactive: -0.043,inactive: 0.054,inactive: -0.009,inactive: -0.007,inactive: -0.045,inactive: -0.075
SRSF2 (UniProt Q01130),inactive: 0.005,inactive: 0.023,inactive: -0.107,inactive: 0.006,,inactive: 0.092,,inactive: -0.006,inactive: -0.033,inactive: -0.036,inactive: 0.02,inactive: -0.062,inactive: 0.007,active: -0.541,inactive: 0.074,inactive: 0.034,inactive: -0.058,inactive: 0,inactive: 0.085,inactive: -0.011
STAT5B (UniProt P51692),inactive: 0.119,inactive: -0.353,inactive: -0.037,inactive: -0.014,,inactive: -0.209,,inactive: 0.097,inactive: -0.09,inactive: -0.082,inactive: -0.056,inactive: 0.109,inactive: -0.218,inactive: -0.432,active: -0.443,inactive: 0.162,inactive: 0.07,inactive: 0.08,inactive: -0.163,inactive: 0.308
SPCS2 (UniProt Q15005),inactive: 0.032,inactive: 0.001,inactive: 0.02,inactive: -0.036,,inactive: -0.007,,inactive: -0.013,inactive: 0.047,inactive: 0.085,inactive: -0.057,inactive: 0.003,inactive: 0.014,inactive: -0.034,inactive: 0,inactive: 0,inactive: 0.053,inactive: 0.025,inactive: -0.035,inactive: 0.037
STAT5A (UniProt P42229),inactive: 0.02,inactive: -0.002,inactive: 0.08,inactive: -0.036,,inactive: -0.033,,inactive: 0.14,inactive: -0.047,inactive: 0.275,inactive: 0.034,inactive: 0.208,inactive: -0.112,active: -0.338,inactive: -0.191,inactive: -0.051,inactive: 0,inactive: 0.104,inactive: -0.107,active: 0.371
STAM (UniProt Q92783),inactive: -0.041,inactive: -0.041,inactive: 0.042,inactive: 0.103,inactive: -0.075,inactive: -0.009,inactive: 0.028,inactive: -0.08,inactive: 0.018,inactive: 0.095,inactive: 0.021,inactive: -0.007,inactive: 0.037,inactive: -0.019,inactive: 0.035,inactive: 0.082,inactive: 0.038,inactive: -0.014,inactive: -0.041,inactive: -0.011
ST6GALNAC1 (UniProt Q9NSC7),inactive: -0.027,inactive: -0.012,inactive: 0.007,inactive: 0.123,inactive: 0.015,,inactive: 0.061,inactive: 0.043,inactive: 0.071,inactive: -0.027,inactive: -0.022,,inactive: 0.083,inactive: -0.065,inactive: 0.046,inactive: -0.019,inactive: -0.07,inactive: 0.029,inactive: -0.057,inactive: -0.004
SSU72 (UniProt Q9NP77),inactive: -0.03,inactive: -0.239,inactive: 0.007,inactive: 0.042,inactive: 0.097,inactive: -0.079,inactive: 0.169,inactive: 0.117,inactive: -0.034,,inactive: 0.293,inactive: 0.156,,,inactive: -0.101,,inactive: 0.094,,inactive: -0.12,inactive: -0.143
SQSTM1 (UniProt Q13501),inactive: 0.1,inactive: -0.149,inactive: -0.059,inactive: 0.042,,inactive: 0.168,,inactive: -0.027,inactive: 0.008,inactive: -0.019,inactive: -0.138,inactive: 0.056,inactive: 0.042,inactive: -0.227,inactive: -0.006,inactive: 0.172,inactive: 0.001,inactive: 0.022,inactive: 0.186,inactive: 0.034

# Some of the entries so far, with tabs:
Target	log2 fold change [1]	log2 fold change (crizotinib)	log2 fold change [2]	log2 fold change [3]	log2 fold change (duvelisib)	log2 fold change (gandotinib)	log2 fold change (tozasertib)	log2 fold change [4]	log2 fold change (doramapimod)	log2 fold change (ispinesib)	log2 fold change (bafetinib)	log2 fold change [5]	log2 fold change (nilotinib)	log2 fold change [6]	log2 fold change (dasatinib)	log2 fold change [7]	log2 fold change [8]	log2 fold change [9]	log2 fold change (tipifarnib)	log2 fold change (mubritinib)
SRSF10 (UniProt O75494)	inactive: -0.176	inactive: 0.153	inactive: -0.539	inactive: 0.259		inactive: 0.183		inactive: 0.036	inactive: 0.222	inactive: -0.172	inactive: 0.044	inactive: -0.1	inactive: 0.089	inactive: -0.079	inactive: 0.336	inactive: 0.076	inactive: -0.498	inactive: -0.173	inactive: 0.215	inactive: -0.089
SRSF11 (UniProt Q05519)	inactive: -0.037	inactive: 0.015	inactive: 0.045	active: -0.277		inactive: -0.068		inactive: 0.067	inactive: -0.015	inactive: 0.08	inactive: 0.071	inactive: 0.105	inactive: -0.024	active: -1.01	inactive: -0.034	inactive: -0.001	inactive: -0.078	inactive: 0.015	inactive: -0.029	inactive: -0.01
